In publication PMC7819943, “Rice protein-binding microarrays: a tool to detect cis-acting elements near promoter regions in rice”:
The other results are listed elsewhere or left out.

Protein sequences, listed by entry. Tags and fused reporters are not part of them.
UniProt Q0JBA9, entry or part of it: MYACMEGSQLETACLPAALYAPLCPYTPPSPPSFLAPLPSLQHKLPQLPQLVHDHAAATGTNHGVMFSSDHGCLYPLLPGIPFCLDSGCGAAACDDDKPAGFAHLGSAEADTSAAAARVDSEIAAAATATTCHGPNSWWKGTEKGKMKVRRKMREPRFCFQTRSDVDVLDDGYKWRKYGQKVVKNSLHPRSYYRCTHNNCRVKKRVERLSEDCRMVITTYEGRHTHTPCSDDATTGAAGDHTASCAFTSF

Target: OsWRKY34 (Oryza sativa, UniProt Q0JBA9 1-250)
Assay: protein-binding microarray (RPBM); PBS, 2% BSA, 51.3 ng/ul salmon testes DNA, 50 uM zinc acetate, 200 nM TF, 25 C, 1 h; high values mean tight binding
Details: protein: recombinant; tags: N-terminal polyhistidine and DsRed monomer fusion (pET32a); label: CyDye5-dUTP incorporated in the synthesized complementary strand; 3' TTTTT single-stranded linker to array surface; dsDNA, one strand shown
Method in brief: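 Per-feature fluorescence intensity (arbitrary units), read on an Axon 4000B scanner, is the binding signal. Transcription factors carrying an N-terminal polyhistidine tag and DsRed fusion were expressed in E. coli BL21-CodonPlus and purified on Ni–NTA. A custom Agilent array, made double-stranded by primer extension with Cy5-dUTP and blocked with 2% BSA, was incubated with 200 nM protein in PBS, 2% BSA, salmon testes DNA and 50 µM zinc acetate at 25 °C for 1 h and then washed.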

With “GTAGGGAGGGAGGGGTGAGGCGGACACACGAAAAATAGGTCGGAGTCACCTAGTGCAG” as the sequence, how does the binding signal read?
The binding signal was 13400 fluorescence intensity (a.u.).

“GCAAACCATTTCCACCGCCACCGTCTCCTCCCGAATTCCGCGGAGTCACCTAGTGCAG” was tested. Which binding signal did it give?
The binding signal was 8760 fluorescence intensity (a.u.).

For “CCGTATCCTATCGTGCCCTATCCAAACACGCGCAAACACCCGGAGTCACCTAGTGCAG”, which binding signal is on record?
Its binding signal is 8970 fluorescence intensity (a.u.).

“AAGTTGGTTTTTATAGGACGAGAGGAGTACATATTTTTTACGGAGTCACCTAGTGCAG” was tested. Which binding signal did it give?
Its binding signal is 8180 fluorescence intensity (a.u.).

“GGGATCATGATGGACAATGGAAACTCCAGCCTGTTTCTCTCGGAGTCACCTAGTGCAG” was tested. Which binding signal did it give?
Its binding signal is 8320 fluorescence intensity (a.u.).

With “TCGTTCTGTTGCTTCCTTCTAGATTTTCTCCTCTGCCAATCGGAGTCACCTAGTGCAG” as the sequence, how does the binding signal read?
Its binding signal is 15200 fluorescence intensity (a.u.).

With “TCTCAGCGCTCTTTCTGATCACTGATCACAACTTCTCCTCCGGAGTCACCTAGTGCAG” as the sequence, how does the binding signal read?
The binding signal was 9580 fluorescence intensity (a.u.).

For “GCGCACTGGTGAAGTTTTTTTTTTGTTTGGTCACCTACGGCGGAGTCACCTAGTGCAG”, which binding signal is on record?
Its binding signal is 9700 fluorescence intensity (a.u.).

Which binding signal does the source give for “CTTTGGGTTATTAACCTTCTTGCGTTTGTTCGGTCGAATTCGGAGTCACCTAGTGCAG” here?
The binding signal was 8170 fluorescence intensity (a.u.).

“CTAGAATTTTTTTCTCCTTTTTTTTCAATGTGCATTTTCTCGGAGTCACCTAGTGCAG” was tested. Which binding signal did it give?
Its binding signal is 8100 fluorescence intensity (a.u.).

How did the binding signal turn out when “TTGCTCTTGTTCATCGCCATCCCTTCATGTGCAAGCCACTCGGAGTCACCTAGTGCAG” was run?
Its binding signal is 8140 fluorescence intensity (a.u.).

“GTAGGCGTGGCACGGGCGGCGACCACGCGGGCGCGCGCGCCGGAGTCACCTAGTGCAG” was tested. Which binding signal did it give?
The binding signal was 12900 fluorescence intensity (a.u.).

“GGCATGTCATTTTTTATTTTGTGGTTACCTAATGTTTTTCCGGAGTCACCTAGTGCAG” was tested. Which binding signal did it give?
The binding signal was 11800 fluorescence intensity (a.u.).

For “GATAAATATCTGCAGGGAGGTGTAGAGGTTGGTGGGTGGGCGGAGTCACCTAGTGCAG”, which binding signal is on record?
The binding signal was 8690 fluorescence intensity (a.u.).

“ACTCTTGCTTGCTCGCCTTGCCTACCCACGCGGCCACACGCGGAGTCACCTAGTGCAG” was tested. Which binding signal did it give?
The binding signal was 8120 fluorescence intensity (a.u.).

Which binding signal does the source give for “GTGAAGAATAAAGTCAACGGTTGATTTCAAGAGATACTAACGGAGTCACCTAGTGCAG” here?
The binding signal was 10600 fluorescence intensity (a.u.).

With “TGTGCCATCACCAATTCATGGCTACTACGCTGGCTACGCGCGGAGTCACCTAGTGCAG” as the sequence, how does the binding signal read?
Its binding signal is 8660 fluorescence intensity (a.u.).

“GTTTTCCACTTTTCCACTGTACGTCAGGTCAATCAGCCGCCGGAGTCACCTAGTGCAG” was tested. Which binding signal did it give?
The binding signal was 8630 fluorescence intensity (a.u.).

For “GGGTCCCTGTGTCGCCAACCGTCGCGCCGCTGCTTGCATACGGAGTCACCTAGTGCAG”, which binding signal is on record?
Its binding signal is 9460 fluorescence intensity (a.u.).

With “GCATACGTCCGTCTCCGAGTCAATTGATTTTTGTGTTTGCCGGAGTCACCTAGTGCAG” as the sequence, how does the binding signal read?
Its binding signal is 8280 fluorescence intensity (a.u.).

How did the binding signal turn out when “TTTGCCCACTTCTACCGTGCGGGTCCCACACTGGCATCCACGGAGTCACCTAGTGCAG” was run?
Its binding signal is 8300 fluorescence intensity (a.u.).

“CTATACTATTAATACCTGGTCTCACATGTCATACACACACCGGAGTCACCTAGTGCAG” was tested. Which binding signal did it give?
The binding signal was 8760 fluorescence intensity (a.u.).

With “CTCTCTCTCTCAGTGCTATTTTTTTACCGATCTTTTACTACGGAGTCACCTAGTGCAG” as the sequence, how does the binding signal read?
The binding signal was 12100 fluorescence intensity (a.u.).

For “AACCACCCCGCGTTTCCAGTCTCCACCACATCAACTCCCCCGGAGTCACCTAGTGCAG”, which binding signal is on record?
Its binding signal is 10200 fluorescence intensity (a.u.).

With “TCGTTCCACGTGCATTGACGTGACACTTATTTGATGTTGACGGAGTCACCTAGTGCAG” as the sequence, how does the binding signal read?
The binding signal was 8230 fluorescence intensity (a.u.).

“AGGATGCATTTTTCTTGACCTGAATCATGCTTGCTTTGCACGGAGTCACCTAGTGCAG” was tested. Which binding signal did it give?
The binding signal was 8400 fluorescence intensity (a.u.).

How did the binding signal turn out when “ATATATTGTTTGTCACGCTATGTTTCCCATCATCATTCTTCGGAGTCACCTAGTGCAG” was run?
The binding signal was 11200 fluorescence intensity (a.u.).

For “TGGTATGTGGAAGCTTCTAGAGGAAAAGGAGGAGGAGGTCCGGAGTCACCTAGTGCAG”, which binding signal is on record?
The binding signal was 10400 fluorescence intensity (a.u.).

Which binding signal does the source give for “TCCACTATAAACCTGTCCGTATAATAAATCCTAGTCGTTCCGGAGTCACCTAGTGCAG” here?
The binding signal was 8650 fluorescence intensity (a.u.).

With “TGTTGATTATTGTCTTCTGAAGATGAGCATGCTCTGCTCTCGGAGTCACCTAGTGCAG” as the sequence, how does the binding signal read?
Its binding signal is 8320 fluorescence intensity (a.u.).

How did the binding signal turn out when “GCCTGGCCCATGCCCTCTCTGCTATAATCTGCACCCTGTCCGGAGTCACCTAGTGCAG” was run?
Its binding signal is 8960 fluorescence intensity (a.u.).

How did the binding signal turn out when “AGTGGTTATATGGGCTGTGAAATTCGGATTATCCGCCAAACGGAGTCACCTAGTGCAG” was run?
The binding signal was 8140 fluorescence intensity (a.u.).

“ATATCTTCTTGGTTGTTGCCTATTTTATTTAAAACAAATTCGGAGTCACCTAGTGCAG” was tested. Which binding signal did it give?
The binding signal was 9960 fluorescence intensity (a.u.).

With “CCTCACATTCTCTCTCCTTTACCATGTGTGTACTTAAAACCGGAGTCACCTAGTGCAG” as the sequence, how does the binding signal read?
The binding signal was 11100 fluorescence intensity (a.u.).

“TAATTCCAAGCTTGTTTCACCGACCTGCCAAACTCGATTGCGGAGTCACCTAGTGCAG” was tested. Which binding signal did it give?
The binding signal was 9200 fluorescence intensity (a.u.).

With “GATGGCAACGGGATTAGATCACTGTAGATGATCCAAAAACCGGAGTCACCTAGTGCAG” as the sequence, how does the binding signal read?
The binding signal was 8130 fluorescence intensity (a.u.).

Which binding signal does the source give for “ATCGCCACAGGTGTCGGCGATGGGGAGGGGAGGGAGAGGTCGGAGTCACCTAGTGCAG” here?
Its binding signal is 12000 fluorescence intensity (a.u.).

With “TTTGGTTTAGGTAGCGCATTTCTGCATTTCACTCTTGGTTCGGAGTCACCTAGTGCAG” as the sequence, how does the binding signal read?
The binding signal was 13300 fluorescence intensity (a.u.).

How did the binding signal turn out when “GGCATTTTCCTTTGTTTTATGATTGCTTCTTCTTGTTTTTCGGAGTCACCTAGTGCAG” was run?
Its binding signal is 12500 fluorescence intensity (a.u.).

For “TCTTTCTTTTTTATATGGTATATAAGGGTAGAATGGTCATCGGAGTCACCTAGTGCAG”, which binding signal is on record?
The binding signal was 8450 fluorescence intensity (a.u.).

For “GCTTTGTTTTCCTTGCTAGCCGGTGCTGTAGCATTTGCATCGGAGTCACCTAGTGCAG”, which binding signal is on record?
The binding signal was 9210 fluorescence intensity (a.u.).

“ATATGTCTACTTTGACTTTGGATTCACTTTACACAAAATTCGGAGTCACCTAGTGCAG” was tested. Which binding signal did it give?
The binding signal was 8480 fluorescence intensity (a.u.).
